The supplement of paper PMC12067093, “Discovery and optimisation of a covalent ligand for TRIM25 and its application to targeted protein ubiquitination” (Chemical Science, 2025)
This is one part of the list.

Protein sequences, listed by entry. Tags and fused reporters are not part of them. Lines headed by an entry give the natural chain unless they say otherwise; changes in a name come on top.
UniProt O94906: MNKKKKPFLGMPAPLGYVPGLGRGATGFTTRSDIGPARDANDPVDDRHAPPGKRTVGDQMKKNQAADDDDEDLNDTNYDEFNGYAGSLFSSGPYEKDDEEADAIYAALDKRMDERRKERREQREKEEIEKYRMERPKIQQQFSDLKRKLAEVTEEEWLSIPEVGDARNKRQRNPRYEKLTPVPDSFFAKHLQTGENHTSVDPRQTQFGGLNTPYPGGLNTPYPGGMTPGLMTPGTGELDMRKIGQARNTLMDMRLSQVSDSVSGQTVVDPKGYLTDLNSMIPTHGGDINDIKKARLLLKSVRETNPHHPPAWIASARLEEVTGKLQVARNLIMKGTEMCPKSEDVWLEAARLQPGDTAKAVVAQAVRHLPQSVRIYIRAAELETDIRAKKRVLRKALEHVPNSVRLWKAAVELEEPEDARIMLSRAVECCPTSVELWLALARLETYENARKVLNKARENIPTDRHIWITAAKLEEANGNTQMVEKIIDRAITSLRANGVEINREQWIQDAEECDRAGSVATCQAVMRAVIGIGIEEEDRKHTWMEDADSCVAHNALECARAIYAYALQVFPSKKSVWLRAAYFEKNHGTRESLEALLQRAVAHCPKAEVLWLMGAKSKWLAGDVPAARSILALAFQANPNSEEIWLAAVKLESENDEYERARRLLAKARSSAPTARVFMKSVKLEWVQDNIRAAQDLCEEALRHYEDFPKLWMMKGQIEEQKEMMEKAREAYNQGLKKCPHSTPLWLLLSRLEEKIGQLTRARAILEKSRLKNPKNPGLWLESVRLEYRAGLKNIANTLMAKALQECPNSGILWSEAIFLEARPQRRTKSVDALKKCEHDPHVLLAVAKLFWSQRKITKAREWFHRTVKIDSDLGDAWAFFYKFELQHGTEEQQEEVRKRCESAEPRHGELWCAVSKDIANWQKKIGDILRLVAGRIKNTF
UniProt P49643: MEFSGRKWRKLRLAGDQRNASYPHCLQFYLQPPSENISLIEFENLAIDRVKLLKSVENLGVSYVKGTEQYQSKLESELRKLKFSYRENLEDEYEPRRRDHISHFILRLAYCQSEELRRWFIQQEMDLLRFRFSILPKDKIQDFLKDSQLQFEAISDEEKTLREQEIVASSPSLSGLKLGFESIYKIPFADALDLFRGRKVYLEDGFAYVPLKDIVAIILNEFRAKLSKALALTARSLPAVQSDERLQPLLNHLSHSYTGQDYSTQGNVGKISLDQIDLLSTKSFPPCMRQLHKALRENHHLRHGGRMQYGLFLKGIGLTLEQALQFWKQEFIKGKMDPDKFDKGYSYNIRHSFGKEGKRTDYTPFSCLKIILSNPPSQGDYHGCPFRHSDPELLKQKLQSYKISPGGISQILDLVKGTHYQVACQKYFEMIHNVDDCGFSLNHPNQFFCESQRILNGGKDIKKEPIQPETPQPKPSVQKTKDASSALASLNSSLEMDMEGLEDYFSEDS
UniProt P60891: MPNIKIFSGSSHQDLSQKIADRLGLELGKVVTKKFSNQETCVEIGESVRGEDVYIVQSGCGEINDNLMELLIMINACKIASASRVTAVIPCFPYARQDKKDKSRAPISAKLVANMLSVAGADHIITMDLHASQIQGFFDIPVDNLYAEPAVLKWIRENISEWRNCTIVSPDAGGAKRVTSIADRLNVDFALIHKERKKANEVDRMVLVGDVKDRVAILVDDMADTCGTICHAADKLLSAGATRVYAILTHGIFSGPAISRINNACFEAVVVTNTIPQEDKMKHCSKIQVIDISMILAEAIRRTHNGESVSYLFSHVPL
UniProt P41743, whole entry, looked up: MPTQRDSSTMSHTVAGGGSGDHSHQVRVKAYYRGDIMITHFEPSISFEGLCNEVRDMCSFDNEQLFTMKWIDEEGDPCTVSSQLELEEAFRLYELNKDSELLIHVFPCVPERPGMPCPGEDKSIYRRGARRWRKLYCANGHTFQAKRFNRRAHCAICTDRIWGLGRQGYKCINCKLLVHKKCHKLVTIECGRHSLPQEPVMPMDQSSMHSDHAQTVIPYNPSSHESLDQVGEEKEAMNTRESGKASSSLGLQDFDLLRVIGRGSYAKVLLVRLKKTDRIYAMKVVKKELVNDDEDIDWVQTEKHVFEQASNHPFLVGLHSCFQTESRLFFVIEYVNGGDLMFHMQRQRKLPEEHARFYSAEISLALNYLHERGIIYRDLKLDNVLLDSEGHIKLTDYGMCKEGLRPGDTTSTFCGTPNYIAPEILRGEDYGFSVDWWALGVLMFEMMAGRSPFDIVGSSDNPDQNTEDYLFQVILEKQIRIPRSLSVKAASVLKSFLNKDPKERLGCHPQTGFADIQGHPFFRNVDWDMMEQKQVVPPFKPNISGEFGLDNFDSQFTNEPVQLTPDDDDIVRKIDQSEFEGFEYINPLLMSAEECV
UniProt Q96LA8, whole entry, looked up: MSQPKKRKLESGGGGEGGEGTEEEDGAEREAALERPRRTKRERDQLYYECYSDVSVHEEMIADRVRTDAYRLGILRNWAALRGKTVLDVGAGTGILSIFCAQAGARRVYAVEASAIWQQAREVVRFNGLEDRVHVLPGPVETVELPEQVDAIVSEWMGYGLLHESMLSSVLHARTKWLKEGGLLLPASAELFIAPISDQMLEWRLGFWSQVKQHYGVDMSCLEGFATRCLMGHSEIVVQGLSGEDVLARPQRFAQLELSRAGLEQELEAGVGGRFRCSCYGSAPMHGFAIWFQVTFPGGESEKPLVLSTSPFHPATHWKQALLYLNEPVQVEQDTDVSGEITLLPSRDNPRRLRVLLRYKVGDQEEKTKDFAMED
UniProt O43172: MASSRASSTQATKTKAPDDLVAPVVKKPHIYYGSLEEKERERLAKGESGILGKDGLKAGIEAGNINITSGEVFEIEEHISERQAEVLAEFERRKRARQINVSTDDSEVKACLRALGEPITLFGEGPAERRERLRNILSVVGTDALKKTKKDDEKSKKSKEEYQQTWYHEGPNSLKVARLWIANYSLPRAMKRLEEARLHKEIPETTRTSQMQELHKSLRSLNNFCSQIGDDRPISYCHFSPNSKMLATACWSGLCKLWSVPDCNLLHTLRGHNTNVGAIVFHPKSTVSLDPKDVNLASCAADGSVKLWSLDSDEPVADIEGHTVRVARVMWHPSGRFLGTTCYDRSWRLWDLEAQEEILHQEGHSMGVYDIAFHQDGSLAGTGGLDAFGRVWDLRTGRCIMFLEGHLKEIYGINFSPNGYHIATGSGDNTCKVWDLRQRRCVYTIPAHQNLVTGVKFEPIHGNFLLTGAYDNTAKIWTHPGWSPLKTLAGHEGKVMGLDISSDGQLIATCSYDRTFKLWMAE
UniProt P10644, whole entry, looked up: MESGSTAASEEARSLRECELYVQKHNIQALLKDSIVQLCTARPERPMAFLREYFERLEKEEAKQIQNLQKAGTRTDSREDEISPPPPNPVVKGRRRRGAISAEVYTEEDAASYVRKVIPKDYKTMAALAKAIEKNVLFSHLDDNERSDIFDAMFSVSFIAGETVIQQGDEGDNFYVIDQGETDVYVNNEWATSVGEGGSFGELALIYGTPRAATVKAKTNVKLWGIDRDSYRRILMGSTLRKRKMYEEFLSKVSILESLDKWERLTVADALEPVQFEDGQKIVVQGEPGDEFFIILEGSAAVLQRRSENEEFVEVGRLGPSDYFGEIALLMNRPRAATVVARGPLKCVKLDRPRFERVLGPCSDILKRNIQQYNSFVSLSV
UniProt Q9NVM4: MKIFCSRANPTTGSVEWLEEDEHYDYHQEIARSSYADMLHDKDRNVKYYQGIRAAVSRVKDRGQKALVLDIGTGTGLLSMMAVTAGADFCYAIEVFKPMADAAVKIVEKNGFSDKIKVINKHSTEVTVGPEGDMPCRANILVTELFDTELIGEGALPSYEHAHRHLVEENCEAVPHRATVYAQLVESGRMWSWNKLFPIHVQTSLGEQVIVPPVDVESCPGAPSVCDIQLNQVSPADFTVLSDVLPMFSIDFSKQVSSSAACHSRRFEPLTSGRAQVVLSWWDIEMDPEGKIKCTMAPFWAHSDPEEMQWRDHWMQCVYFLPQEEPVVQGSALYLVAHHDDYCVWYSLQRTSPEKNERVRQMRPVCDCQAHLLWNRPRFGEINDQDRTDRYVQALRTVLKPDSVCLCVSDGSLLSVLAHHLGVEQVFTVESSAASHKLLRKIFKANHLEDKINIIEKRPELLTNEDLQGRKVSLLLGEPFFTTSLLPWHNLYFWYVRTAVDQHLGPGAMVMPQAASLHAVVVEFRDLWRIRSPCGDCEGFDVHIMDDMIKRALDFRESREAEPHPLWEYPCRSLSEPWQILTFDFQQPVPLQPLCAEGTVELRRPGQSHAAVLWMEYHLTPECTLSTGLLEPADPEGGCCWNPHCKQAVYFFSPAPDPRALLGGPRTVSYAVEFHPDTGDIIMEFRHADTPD

Compound: Cc1cc(ccc1-c1ccccc1)C(=O)N1CCCN(CC1)C(=O)CCl [compound 10]
Test: probe-labelled cysteine peptide fold change vs DMSO (competition) (log2 fold change); higher = less target engagement (more negative = stronger competition)
Conditions: THP-1, incubation time: 4 h
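Further: competitive profiling in live THP-1 cells: cysteine peptides tagged with an iodoacetamide desthiobiotin (IA-DTB) probe, intensity after compound treatment relative to DMSO-treated cells.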

Target | probe-labelled cysteine peptide fold change (10 µM) | probe-labelled cysteine peptide fold change (50 µM)
PRPF6_O94906_739_CPHSTPLWLLLSR (UniProt O94906) | 0.0362 | 0.027
PRIM2_P49643_424_GTHYQVACQK (UniProt P49643) | 0.0708 | 0.193
PRPS1_P60891_265_INNACFEAVVVTNTIPQEDK (UniProt P60891) | 0.0817 | -0.0107
PRKDC_P78527_3001_DFWELASLDCYNHLAEWK (UniProt P78527) | 0.0135 | 0.0867
PRR14L_Q5THK1_1483_DTESCTSPCLLGAPR (UniProt Q5THK1) | -0.528 | -1.12
PRKCI_P41743_108+117_DSELLIHVFPCVPERPGMPCPGEDK (UniProt P41743) | -0.144 | -0.535
PRR14L_Q5THK1_650_VESECVLNQQVSLNSQEHANLPTDSLLHLNK (UniProt Q5THK1) | -0.519 | -0.522
PRPF6_O94906_913_HGELWCAVSK (UniProt O94906) | -0.0869 | 0.197
PRMT6_Q96LA8_100_TVLDVGAGTGILSIFCAQAGAR (UniProt Q96LA8) | 0.377 | 0.339
PRRC2C_Q9Y520_223_IACGPPQAK (UniProt Q9Y520) | -0.388 | -0.405
PRKDC_P78527_2093_EQRDPTVHDDVLELEMDELNRHECMAPLTALVK (UniProt P78527) | -0.163 | -0.293
PRPF4_O43172_299_DVNLASCAADGSVK (UniProt O43172) | -0.149 | -0.0256
PRKAR1A_P10644_39_DSIVQLCTARPER (UniProt P10644) | -0.205 | 0.175
PRMT7_Q9NVM4_366+368_QMRPVCDCQAHLLWNRPR (UniProt Q9NVM4) | 0.0235 | -0.133
